In article PMC12635394, “UBE2O-mediated ubiquitylation directs cytoplasmic CTNNA1 to promote cell-to-ECM adhesions” (EMBO Reports, 2025):

Biological target: T1, Flag-UBE2O (full length, expressed in cells) (human) (UniProt Q9C0C9)
T1 sequence: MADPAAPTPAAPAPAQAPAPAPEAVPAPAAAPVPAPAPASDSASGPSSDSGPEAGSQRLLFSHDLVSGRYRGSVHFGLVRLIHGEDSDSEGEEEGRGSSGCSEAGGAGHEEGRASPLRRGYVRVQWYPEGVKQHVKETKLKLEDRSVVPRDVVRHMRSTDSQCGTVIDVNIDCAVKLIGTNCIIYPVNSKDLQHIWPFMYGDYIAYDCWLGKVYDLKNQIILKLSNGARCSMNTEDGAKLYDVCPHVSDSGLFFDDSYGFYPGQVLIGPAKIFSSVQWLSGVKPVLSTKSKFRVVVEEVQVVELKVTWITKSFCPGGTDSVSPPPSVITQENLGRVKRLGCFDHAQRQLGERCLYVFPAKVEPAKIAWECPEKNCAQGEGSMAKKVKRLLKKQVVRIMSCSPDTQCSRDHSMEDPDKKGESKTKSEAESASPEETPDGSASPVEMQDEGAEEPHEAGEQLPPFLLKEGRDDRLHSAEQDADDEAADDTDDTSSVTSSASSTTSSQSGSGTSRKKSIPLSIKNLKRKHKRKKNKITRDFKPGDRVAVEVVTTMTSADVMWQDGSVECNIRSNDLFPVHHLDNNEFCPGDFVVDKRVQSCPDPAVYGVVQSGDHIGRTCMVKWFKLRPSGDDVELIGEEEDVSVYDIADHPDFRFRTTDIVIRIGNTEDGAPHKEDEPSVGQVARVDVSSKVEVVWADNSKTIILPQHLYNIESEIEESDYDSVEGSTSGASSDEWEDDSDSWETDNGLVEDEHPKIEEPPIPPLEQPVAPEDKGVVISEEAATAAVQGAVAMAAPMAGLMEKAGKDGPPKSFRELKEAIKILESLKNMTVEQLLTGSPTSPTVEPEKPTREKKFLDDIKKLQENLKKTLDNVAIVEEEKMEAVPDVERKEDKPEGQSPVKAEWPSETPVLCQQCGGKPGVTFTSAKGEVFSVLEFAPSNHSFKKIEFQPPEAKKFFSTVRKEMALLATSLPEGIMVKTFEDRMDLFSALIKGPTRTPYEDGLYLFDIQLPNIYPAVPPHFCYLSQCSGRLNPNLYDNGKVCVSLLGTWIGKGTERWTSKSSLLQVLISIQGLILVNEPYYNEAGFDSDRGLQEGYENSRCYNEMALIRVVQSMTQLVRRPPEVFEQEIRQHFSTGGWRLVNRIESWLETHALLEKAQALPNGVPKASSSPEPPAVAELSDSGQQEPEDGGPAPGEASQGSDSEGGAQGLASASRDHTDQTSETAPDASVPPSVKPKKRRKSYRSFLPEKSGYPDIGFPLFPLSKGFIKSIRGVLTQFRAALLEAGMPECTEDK
Assay: co-IP; co-expression of tagged full-length or truncated proteins in transfected cells (36 h), anti-Flag M2 affinity gel 90 min at 4 °C, immunoblot

binding | Substance
binds | Myc-CTNNA1 C-terminal domain (mouse) (domain or fragment)
binds | Myc-CTNNA1 N-terminal (N) domain (mouse) (domain or fragment)

Results are given in words; binding and its absence hold for the method and conditions named. In cells and extracts the contact can be indirect. Binding calls can cover weak binding; strength is not graded here. Sequences can lack the tags named with a protein.
